In PubChem BioAssay AID1919017 (Molecular Pharmacology Branch, DTP, NCI, 2023):
Several values for one entry are separate records, joined by “and”; a condition that tells them apart may be missing. Rule for the calls: active = viability on the fitted dose curve at most 10% of control; inactive = the rest. Identical values can stand only once. The source gives many values for each of these; only a part stands here.

Test system: SW1271 complex spheroids with HUVEC/MSC, growth, % test/control
Test: Anticancer human tumor SW1271 cell line growth inhibition [AhR];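 note: spheroids exposed to agents for 7 days before readout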
Details: stronger effect = lower value
Text: Multicellular complex tumor spheroid response to aryl hydrocarbon receptor antagonists in combination with a variety of drugs and investigational agents in selected tumor cell lines
The current study was undertaken to assess response to aryl hydrocarbon receptor antagonists in combination with standard-of-care drugs and investigational agents in solid tumor complex spheroid models. Complex spheroids include a stromal component modeled by human endothelial cells (HUVEC) and fibroblasts modeled by human mesenchymal stem cells (MSCs). The concentration ranges selected for each drug and investigational agent were based upon clinically achievable concentrations if the clinical Cmax of the agent was known.
Compounds. The drugs and investigational agents: BAY 2416964 (NSC825713), GNF351 (NSC835774), CH-223191 (NSC835775), CPI-455 (NSC825282), aza-TdCyd (NSC777586), decitabine (NSC127716), belinostat (NSC758774), entinostat (NSC756642), pevonedistat (NSC761192), tazemetostat (NSC777109), talazoparib (NSC765396), olaparib (NSC753686), selinexor (NSC780203), nedisertib (M3814, NSC802822), bortezomib (NSC756655), venetoclax (NSC766270), doxorubicin (NSC123127), elimusertib (BAY189344, NSC800525), ceralasertib (AZD6738, NSC777638), TAK-243 (NSC785004), alisertib (NSC759677), etoposide (NSC141540), topotecan (NSC609699), eribulin (NSC707389), gemcitabine (NSC613327), carboplatin (NSC241240), cisplatin (NSC119875), and SN-38 (NSC673596) were obtained from the National Cancer Institute (NCI) Developmental Therapeutics Program Chemical Repository (32). The FDA-approved anticancer drug set is available from the Developmental Therapeutics Program at https://dtp.cancer.gov/organization/dscb/obtaining/available plates.htm. […] The stock solutions were prepared in dimethyl sulfoxide (DMSO, Sigma-Aldrich, St. Louis, MO, cat. D2650), except for the platinum compounds which were prepared in saline (Quality Biological, Gaithersburg, MD, cat. 114-055-101), at 800-fold the tested concentration and stored at -70 degrees C prior to their use. All drugs and investigational agents were tested over a range starting from a high concentration at or near the clinical Cmax and decreasing in half-log increments. If the clinical Cmax for an agent had not been determined, the highest concentration tested was 10 microM (Table 1).
Cell Culture. All cells were maintained in an incubator at 37 degrees C and 5% CO2 with 95% humidity. The PDC lines were cultured according to standard operating procedures established by the NCI PDMR (https://pdmr.cancer.gov). Briefly, all PDCs were thawed and cultured in Matrigel-coated flasks prepared with a working solution of 1X Ham's F-12 nutrient mix, without supplementation (Invitrogen, Waltham, MA, cat. 11765054), 100 U/mL penicillin-streptomycin (Invitrogen, cat. 15140122), and 2.5% Matrigel (Corning Inc., Corning, NY, cat. 354248) for the first three passages. All PDCs were cultured in complete DMEM/F-12 media containing advanced DMEM/F-12 (Invitrogen, cat. 12634028), 4.9% defined fetal bovine serum, heat inactivated (HyClone Laboratories Inc., Logan, UT, cat. SH30070.03HI), 389 ng/mL hydrocortisone (Sigma-Aldrich, cat. H4001), 9.7 ng/mL human EGF recombinant protein (Invitrogen, cat. PHG0313), 23.4 microg/mL adenine (Sigma-Aldrich, cat. A2786), 97.3 U/mL penicillin-streptomycin (Invitrogen, cat. 15140122), 1.9 mM L-glutamine (Invitrogen, cat. 25030081), and 9.7 microM Y-27632 dihydrochloride (Tocris Bioscience, Bristol, United Kingdom, cat. 1254). The PDCs were cultured in complete DMEM/F12 media without 10 microM Y-27632 dihydrochloride for at least two passages prior to the screen. The established cell lines NCI-H1341 and […] were cultured in DMEM/F-12, HEPES (Invitrogen, cat. 11330032), 5% defined fetal bovine serum (HyClone Laboratories Inc., cat. SH30070.03), ITS premix universal culture supplement [insulin (5 microg/mL), transferrin (5 microg/mL), and selenious acid (5 ng/mL)] […]

Measured: viability, T/C

Cc1ccccc1N=Nc1ccc(NC(=O)c2ccnn2C)c(C)c1
inactive: compound 0.316 µM 97.5% [middle of 4 runs] | compound 1 µM 111% and 95% and 99.9% | compound 10 µM 98.9% [middle of 4 runs]

Cc1cncc(-c2nc(NCCc3c[nH]c4ccccc34)c3ncn(C(C)C)c3n2)c1
inactive: compound 0.1 µM 99.1% [middle of 4 runs] | compound 1 µM 92.5% and 91.1% and 90.6% | compound 3.16 µM 82% and 75.4% and 93.6% | compound 10 µM 49.8% [middle of 5 runs]

CC(CO)NC(=O)c1cc(-c2ccc(Cl)cc2)nn(-c2cnn(C)c2)c1=O (stereo not given)
inactive: compound 0.316 µM 76.1% and 68% and 99% | compound 1 µM 80.8% [middle of 4 runs] | compound 10 µM 75.6% [middle of 5 runs]
